Drawing on US20100215655A1 (CHENGDU KANGHONG BIOTECHNOLOGIES, published 2010), this text covers binding for 3 molecules.

The chains behind the UniProt entries cited, without tags or fusion partners. Where a name states a change or a piece, a line headed by the entry shows the natural chain unless it says otherwise. A line that says so, or that is headed by a name, gives the form on record, which may keep a tag or linker.
recombinant VEGF (vascular endothelial cell growth factor) (P15692, form named): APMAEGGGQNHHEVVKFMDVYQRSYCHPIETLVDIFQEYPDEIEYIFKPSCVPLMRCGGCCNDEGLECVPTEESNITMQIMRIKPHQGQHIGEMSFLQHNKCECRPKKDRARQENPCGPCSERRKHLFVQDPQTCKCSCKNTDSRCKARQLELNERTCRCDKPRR

These are yes or no findings as the source states them, for the method shown. Some results given as binding are weak or reduced against the parent protein; the word gives no strength. Tags and fused reporters may be left off the sequences shown.

For assay [1], the target named is recombinant VEGF (vascular endothelial cell growth factor) (UniProt P15692). Put plainly: ELISA, VEGF coated on plate, anti-human Ig-HRP detection. Background: In an ELISA, binding on a coated surface is turned into a signal by an enzyme label.
Assay [2] shares this target. The assay is described as follows: ELISA, VEGF coated on plate (FIG. 2).

B1: FP1′ (FLTd2-KDRd3-Fc), chimeric protein of the prior art (Fc fusion, not shown: a dimerising Fc or GST)
chain: PFVEMYSEIPEIIHMTEGRELVIPCRVTSPNITVTLKKFPLDTLIPDGKRIIWDSRKGFIISNATYKEIGLLTCEATVNGHLYKTNYLTHRQTVVLSPSHGIELSVGEKLVLNCTARTELNVGIDFNWEYPSSKHQHKKLVNRDLKTQSGSEMKKFLSTLTIDGVTRSDQGLYTCAASSGLMTKKNSTFVRVHEK
With B1, the binding entry in assay [1] is “binds”.

B2: FP2′ (KDRd1-FLTd2-KDRd3-Fc) (Fc fusion, not shown: a dimerising Fc or GST)
chain: PRLSIQKDILTIKANTTLQITCRGQRDLDWLWPNNQSGSEQRVEVTECSDGLFCKTLTIPKVIGNDTGAYKCFYRETDLASVIYVYPFVEMYSEIPEIIHMTEGRELVIPCRVTSPNITVTLKKFPLDTLIPDGKRIIWDSRKGFIISNATYKEIGLLTCEATVNGHLYKTNYLTHRQTVVLSPSHGIELSVGEKLVLNCTARTELNVGIDFNWEYPSSKHQHKKLVNRDLKTQSGSEMKKFLSTLTIDGVTRSDQGLYTCAASSGLMTKKNSTFVRVHEK
notes: Expressed in 293 cells
As to B2, the binding result in assay [1] and in assay [2] was “binds” each time.

B3: FP4′ (FLTd2-KDRd3-FLTd4-Fc) (Fc fusion, not shown: a dimerising Fc or GST)
chain: PFVEMYSEIPEIIHMTEGRELVIPCRVTSPNITVTLKKFPLDTLIPDGKRIIWDSRKGFIISNATYKEIGLLTCEATVNGHLYKTNYLTHRQTVVLSPSHGIELSVGEKLVLNCTARTELNVGIDFNWEYPSSKHQHKKLVNRDLKTQSGSEMKKFLSTLTIDGVTRSDQGLYTCAASSGLMTKKNSTFVRVHEKFITVKHRKQQVLETVAGKRSYRLSMKVKAFPSPEVVWLKDGLPATEKSARYLTRGYSLIIKDVTEEDAGNYTILLSIKQSNVFKNLTATLIVNVKP
notes: Expressed in 293 cells
As to B3, the binding result in assay [1] and in assay [2] was “binds” each time.
